Assay results from publication PMC12431652.
Results are given in words; binding and its absence hold for the method and conditions named. Binding seen in cells or lysates may run through a third protein. Some entries that bind do so weakly or less than the wild type.

The chains behind the UniProt entries cited, without tags or fusion partners.
UniProt Q13263: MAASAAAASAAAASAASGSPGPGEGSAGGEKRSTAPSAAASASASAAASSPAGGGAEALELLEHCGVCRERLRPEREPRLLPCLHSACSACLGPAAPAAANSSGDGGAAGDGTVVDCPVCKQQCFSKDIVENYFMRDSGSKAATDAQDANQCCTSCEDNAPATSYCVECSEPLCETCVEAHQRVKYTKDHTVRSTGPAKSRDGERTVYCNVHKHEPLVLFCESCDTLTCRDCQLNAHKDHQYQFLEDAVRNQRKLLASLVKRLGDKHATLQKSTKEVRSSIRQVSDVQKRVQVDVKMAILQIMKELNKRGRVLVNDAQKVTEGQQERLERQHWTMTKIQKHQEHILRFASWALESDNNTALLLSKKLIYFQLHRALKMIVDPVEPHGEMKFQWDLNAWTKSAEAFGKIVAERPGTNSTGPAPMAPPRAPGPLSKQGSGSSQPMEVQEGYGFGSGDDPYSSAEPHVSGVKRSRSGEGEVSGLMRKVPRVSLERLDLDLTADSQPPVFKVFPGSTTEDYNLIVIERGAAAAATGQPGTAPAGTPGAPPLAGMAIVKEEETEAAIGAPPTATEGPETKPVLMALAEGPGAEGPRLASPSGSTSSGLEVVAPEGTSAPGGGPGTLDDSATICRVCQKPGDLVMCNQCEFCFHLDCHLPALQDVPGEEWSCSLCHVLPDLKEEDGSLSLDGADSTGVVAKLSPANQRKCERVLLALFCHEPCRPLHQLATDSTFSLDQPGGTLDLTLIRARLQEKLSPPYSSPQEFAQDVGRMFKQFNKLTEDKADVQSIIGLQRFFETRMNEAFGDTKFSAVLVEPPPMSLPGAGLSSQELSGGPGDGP

Assays:
[1] = molecular target: PIV5 V protein expressed in PIV5-infected cells (Parainfluenza virus 5 (strain W3A)) (UniProt P11207); test: co-IP
[2] = molecular target: Tripartite Motif Protein 28 (TRIM28), endogenous in A549 cells (human (endogenous in A549)) (UniProt Q13263); test: co-IP

| Substance | binding [1] | binding [2] |
| --- | --- | --- |
| Tripartite Motif Protein 28 (TRIM28), endogenous in A549 cells (from UniProt Q13263 1-835) | binds |  |
| PIV5 V protein expressed in PIV5-infected cells (from UniProt P11207 1-222) |  | binds |
